Data on two substances can be found in patent US20100022457A1 (Bristol-Myers Squibb Company, priority 2006, published 2010).

The nature of this data set: general procedure: Fmoc solid-phase peptide synthesis; Sieber amide resin (loading 0.5 to 0.7 mmol/g); 2-chlorotrityl chloride resin for protected fragments; PyBOP/DIEA, DIC/HOAt, HATU/HOAt. To be noted: whole synthesis; for isolated yield: recovery.

[ ]: non-standard residue; d: D form. Ala(6-(2-MePh)pyridin-3-yl) = Cc1ccccc1-c1ccc(C[C@H](N)C(=O)O)cn1; Bip(2'-Et-4'-OMe) = CCc1cc(OC)ccc1-c1ccc(C[C@H](N)C(=O)O)cc1; αMePhe(2-F) = C[C@](N)(Cc1ccccc1F)C(=O)O; αMeP = C[C@@]1(C(=O)O)CCCN1; dNMeA = CN[C@H](C)C(=O)O

Turning to “H-H[dNMeA]EGT[αMePhe(2-F)]TSD[Bip(2'-Et-4'-OMe)][Ala(6-(2-MePh)pyridin-3-yl)]-NH2 (SMILES CCc1cc(OC)ccc1-c1ccc(C[C@H](NC(=O)[C@H](CC(=O)O)NC(=O)[C@H](CO)NC(=O)[C@@H](NC(=O)[C@](C)(Cc2ccccc2F)NC(=O)[C@@H](NC(=O)CNC(=O)[C@H](CCC(=O)O)NC(=O)[C@@H](C)N(C)C(=O)[C@@H](N)Cc2c[nH]cn2)[C@@H](C)O)[C@@H](C)O)C(=O)N[C@@H](Cc2ccc(-c3ccccc3C)nc2)C(N)=O)cc1)”, the isolated yield amounted to 18.5% recovery.

On to “H-H[αMeP]EGT[αMePhe(2-F)]THD[Bip(2'-Et-4'-OMe)][Ala(6-(2-MePh)pyridin-3-yl)]-NH2 (SMILES CCc1cc(OC)ccc1-c1ccc(C[C@H](NC(=O)[C@H](CC(=O)O)NC(=O)[C@H](Cc2c[nH]cn2)NC(=O)[C@@H](NC(=O)[C@](C)(Cc2ccccc2F)NC(=O)[C@@H](NC(=O)CNC(=O)[C@H](CCC(=O)O)NC(=O)[C@]2(C)CCCN2C(=O)[C@@H](N)Cc2c[nH]cn2)[C@@H](C)O)[C@@H](C)O)C(=O)N[C@@H](Cc2ccc(-c3ccccc3C)nc2)C(N)=O)cc1)”, for which the “final HPLC purity” value (analytical RP-HPLC with UV detection, YMC ODS S3 column, scale 0.05 mmol) is 94%. Under “scale 0.05 mmol”, this substance yielded an isolated yield of 42% recovery and an isolated mass of 21.7 mg.
